Test [1] has as its target FLAG-BPLF1 (aa 1-235), catalytically active N-terminal domain of BPLF1 (Epstein-Barr virus) (UniProt P03186). As to the kind of experiment: co-IP; anti-FLAG agarose on lysates of transfected HeLa, U2OS or HEK293T cells (NP-40 lysis buffer), elution with 3xFLAG peptide, western blot; in Fig 7A with co-transfected HA-TRIM25, in Fig 5C with co-transfected HA- and FLAG-TRIM25. (Immunoblotting shows a protein as a band on a membrane.)

Chains of the proteins cited; added tags and fusions are not shown. Residues count along the entry.
UniProt P03186, residues 1-235: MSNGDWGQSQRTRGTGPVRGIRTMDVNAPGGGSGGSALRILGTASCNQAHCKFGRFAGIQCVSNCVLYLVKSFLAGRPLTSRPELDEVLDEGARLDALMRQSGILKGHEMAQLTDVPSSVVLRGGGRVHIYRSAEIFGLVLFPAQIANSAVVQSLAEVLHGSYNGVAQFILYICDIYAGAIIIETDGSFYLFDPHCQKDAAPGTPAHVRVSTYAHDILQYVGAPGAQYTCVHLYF
UniProt Q14258: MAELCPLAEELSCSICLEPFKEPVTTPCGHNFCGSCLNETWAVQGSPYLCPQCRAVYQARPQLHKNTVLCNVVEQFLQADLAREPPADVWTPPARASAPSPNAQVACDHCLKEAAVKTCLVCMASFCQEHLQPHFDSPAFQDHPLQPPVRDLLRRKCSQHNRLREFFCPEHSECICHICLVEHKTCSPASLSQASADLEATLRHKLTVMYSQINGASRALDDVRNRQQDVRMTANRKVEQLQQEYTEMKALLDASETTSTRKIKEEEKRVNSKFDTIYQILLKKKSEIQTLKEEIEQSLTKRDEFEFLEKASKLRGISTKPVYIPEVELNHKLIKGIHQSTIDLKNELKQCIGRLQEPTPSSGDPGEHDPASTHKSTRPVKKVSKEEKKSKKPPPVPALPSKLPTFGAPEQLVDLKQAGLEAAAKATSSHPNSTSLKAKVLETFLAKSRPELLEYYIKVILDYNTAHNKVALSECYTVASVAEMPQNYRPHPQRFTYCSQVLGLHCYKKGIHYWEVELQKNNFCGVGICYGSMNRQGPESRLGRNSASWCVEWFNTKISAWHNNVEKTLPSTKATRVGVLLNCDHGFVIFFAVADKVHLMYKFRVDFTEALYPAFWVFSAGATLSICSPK
UniProt P16785, residues 1-263: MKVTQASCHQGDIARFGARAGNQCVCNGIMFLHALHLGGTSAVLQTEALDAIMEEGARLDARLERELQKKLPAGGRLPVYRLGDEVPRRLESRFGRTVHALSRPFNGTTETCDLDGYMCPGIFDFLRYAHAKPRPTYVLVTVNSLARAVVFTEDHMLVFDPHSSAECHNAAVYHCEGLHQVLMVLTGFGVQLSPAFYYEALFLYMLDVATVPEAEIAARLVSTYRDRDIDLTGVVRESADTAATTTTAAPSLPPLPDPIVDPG
UniProt P10220, residues 1-293: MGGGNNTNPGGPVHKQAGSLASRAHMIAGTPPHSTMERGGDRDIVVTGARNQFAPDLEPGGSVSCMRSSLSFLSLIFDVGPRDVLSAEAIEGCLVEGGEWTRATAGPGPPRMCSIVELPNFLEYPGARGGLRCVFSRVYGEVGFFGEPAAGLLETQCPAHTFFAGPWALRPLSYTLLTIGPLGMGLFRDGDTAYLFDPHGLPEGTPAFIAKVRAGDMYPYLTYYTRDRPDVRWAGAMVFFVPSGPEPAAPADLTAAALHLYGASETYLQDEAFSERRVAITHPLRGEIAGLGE
UniProt P31946: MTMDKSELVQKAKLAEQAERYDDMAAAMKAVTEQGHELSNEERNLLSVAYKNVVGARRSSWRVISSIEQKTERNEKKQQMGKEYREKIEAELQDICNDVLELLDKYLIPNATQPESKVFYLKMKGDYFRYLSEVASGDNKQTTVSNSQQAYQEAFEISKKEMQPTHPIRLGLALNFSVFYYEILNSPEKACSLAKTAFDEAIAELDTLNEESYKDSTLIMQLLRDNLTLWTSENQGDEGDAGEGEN
UniProt P62258: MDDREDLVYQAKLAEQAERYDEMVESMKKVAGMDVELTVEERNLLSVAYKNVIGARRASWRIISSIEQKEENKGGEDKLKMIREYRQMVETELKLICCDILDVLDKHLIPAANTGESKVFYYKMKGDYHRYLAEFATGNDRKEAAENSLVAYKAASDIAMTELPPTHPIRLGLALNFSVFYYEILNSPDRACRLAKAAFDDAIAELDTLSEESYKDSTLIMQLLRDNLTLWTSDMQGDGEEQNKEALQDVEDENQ
UniProt P63104: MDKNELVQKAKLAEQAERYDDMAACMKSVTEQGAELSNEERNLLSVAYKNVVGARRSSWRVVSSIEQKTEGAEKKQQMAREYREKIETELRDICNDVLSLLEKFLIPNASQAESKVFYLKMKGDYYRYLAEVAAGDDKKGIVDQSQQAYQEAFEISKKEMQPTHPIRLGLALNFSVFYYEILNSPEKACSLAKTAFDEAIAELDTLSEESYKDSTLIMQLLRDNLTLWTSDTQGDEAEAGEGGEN

Test [2] concerns the target TRIM25 ubiquitin ligase (endogenous) (human (endogenous in HeLa, U2OS, HEK293T)) (UniProt Q14258). The test can be described thus: co-IP; endogenous TRIM25 immunoprecipitated with anti-TRIM25 antibody and protein-G Sepharose from lysates of HeLa cells transfected with FLAG-tagged plasmids, western blot; for RIG-I the cells were co-transfected with GST-2CARD.
Test [3] has as its target 3xFLAG-HCMV-UL48 (amino acid residues 1-263), N-terminal catalytic domain (HCMV (human cytomegalovirus)) (UniProt P16785). As to the kind of experiment: co-IP; anti-FLAG agarose on lysates of transfected HeLa, U2OS or HEK293T cells (NP-40 lysis buffer), elution with 3xFLAG peptide, western blot; in Fig 7A with co-transfected HA-TRIM25, in Fig 5C with co-transfected HA- and FLAG-TRIM25.

In test [4] the target is T1, 3xFLAG-KSHV-ORF64 (amino acid residues 1-205), N-terminal catalytic domain (KSHV) (UniProt Q2HR64).
T1 sequence: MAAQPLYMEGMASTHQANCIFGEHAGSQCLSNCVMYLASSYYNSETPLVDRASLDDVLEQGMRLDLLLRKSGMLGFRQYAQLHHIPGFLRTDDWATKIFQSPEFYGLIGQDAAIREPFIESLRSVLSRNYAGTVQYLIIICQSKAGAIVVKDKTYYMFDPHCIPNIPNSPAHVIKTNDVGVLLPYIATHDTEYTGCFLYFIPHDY
Described as above.

Test [5] deals with 3xFLAG-tagged HSV-UL36 (amino acid residues 1-293), N-terminal catalytic domain (HSV (herpes simplex virus; type not stated)) (UniProt P10220). Described as above.

Results are given in words; binding and its absence hold for the method and conditions named. In cells and extracts the contact can be indirect. Some entries that bind do so weakly or less than the wild type. For part of these data: Where a sequence is shown, tags or fusion partners need not be part of it.

On to 14-3-3β (from UniProt P31946 1-246), for which, in test [1], the binding entry was “no binding”.

Consider 14-3-3ε (from UniProt P62258 1-255), for which the binding result in test [1] is “binds”.

As for 14-3-3ζ (from UniProt P63104 1-245), in test [1], the binding entry is on record as “binds”.

As to “FLAG-BPLF1 (aa 1-235), catalytically active N-terminal domain of BPLF1 (from UniProt P03186 1-235) (domain or fragment)”, the binding entry in test [2] is “binds”.

On to “HA-tagged TRIM25 (co-expressed with FLAG-tagged TRIM25 in the self-association test) (from UniProt Q14258 1-630)”, for which the binding entry in test [3], in test [4], in test [5] and in test [1] was “binds” throughout.

Consider “TRIM25 ubiquitin ligase (endogenous) (from UniProt Q14258 1-630)”, for which the binding entry in test [3], in test [4], in test [5] and in test [1] was “binds” throughout.
